Source: publication PMC12210014

Sequences of proteins named here, by UniProt entry; tags and fusion partners are left off.
UniProt A0ACM8QJT5: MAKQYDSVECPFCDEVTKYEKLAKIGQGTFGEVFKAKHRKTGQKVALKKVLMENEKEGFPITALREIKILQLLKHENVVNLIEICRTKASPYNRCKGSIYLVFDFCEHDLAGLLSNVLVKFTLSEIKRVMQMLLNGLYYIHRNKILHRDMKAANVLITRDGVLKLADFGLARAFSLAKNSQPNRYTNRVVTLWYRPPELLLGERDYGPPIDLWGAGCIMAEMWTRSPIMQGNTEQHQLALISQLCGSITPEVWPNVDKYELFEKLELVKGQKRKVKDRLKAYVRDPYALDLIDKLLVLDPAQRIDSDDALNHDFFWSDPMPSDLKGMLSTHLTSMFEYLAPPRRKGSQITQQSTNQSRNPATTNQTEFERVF

Biological target: T1, HA-tagged FKBPL (pig) (UniProt A5A8W3)
T1 sequence: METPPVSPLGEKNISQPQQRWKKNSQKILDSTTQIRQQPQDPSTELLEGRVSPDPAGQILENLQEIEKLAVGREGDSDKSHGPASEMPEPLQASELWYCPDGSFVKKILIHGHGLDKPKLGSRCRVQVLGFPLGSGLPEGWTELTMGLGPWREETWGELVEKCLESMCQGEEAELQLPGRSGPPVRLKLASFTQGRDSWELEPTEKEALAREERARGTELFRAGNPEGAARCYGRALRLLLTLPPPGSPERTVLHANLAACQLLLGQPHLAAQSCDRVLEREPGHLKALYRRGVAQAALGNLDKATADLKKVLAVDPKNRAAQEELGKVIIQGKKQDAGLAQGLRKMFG
Test: affinity purification with mass spectrometry; IP with anti-HA antibody from 2472 pig 8-cell embryos injected with HA-FKBPL mRNA; IgG as control; two specific silver-stained bands analysed by mass spectrometry

| binding | Substance |
| --- | --- |
| binds | HSP90AA1 (from UniProt O02705 1-733) |
| binds | CDK9 (from UniProt A0ACM8QJT5 1-372) |

Results are given in words; binding and its absence hold for the method and conditions named. Binding seen in cells or lysates may run through a third protein. A yes stands for co-enrichment or nearness to the bait. Other partners may have been found. Where a sequence is shown, tags or fusion partners need not be part of it.
